The other results are listed elsewhere or left out. The calls rarely recur for the same compound in another form.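 In K562 cells expressing nanoluciferase-fused kinases, luminescence was recorded at 4 h intervals between 2 and 18 h, normalized as percent of control with DMSO at 100% and a positive control at 0%. A significant (2 sigma) signal drop marks a time point as decreased. The authors' rule for a hit is not shown and takes in more than the number of time points.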
Key:
Details in all cases: K562; 2-18 h
STK38 = STK38 (UniProt Q15208); experiment: kinase-Nluc reporter destabilization hit call (1 = scored as downregulated) (binary); higher = compound decreases kinase abundance
SYK = SYK (UniProt P43405); experiment: as above
TEC = TEC (UniProt P42680); experiment: as above
TYK2 = TYK2 (UniProt P29597); experiment: as above
ULK3 = ULK3 (UniProt Q6PHR2); experiment: as above
YES1 = YES1 (UniProt P07947); experiment: as above
ZAK = ZAK (UniProt Q9NYL2); experiment: as above
ZAP70 = ZAP70 (UniProt P43403); experiment: as above
ABL1 = ABL1 (UniProt P00519); experiment: number of time points (of 5) at which kinase-Nluc abundance scored as decreased, DMSO-normalised (count); higher = more persistent destabilization
AKT1 = AKT1 (UniProt P31749); experiment: as above
ALK = ALK (UniProt Q9UM73); experiment: as above
ARAF = ARAF (UniProt P10398); experiment: as above
AURKA = AURKA (UniProt O14965); experiment: as above
AURKB = AURKB (UniProt Q96GD4); experiment: as above
AURKC = AURKC (UniProt Q9UQB9); experiment: as above
BLK = BLK (UniProt P51451); experiment: as above
BMX = BMX (UniProt P51813); experiment: as above
BRAF = BRAF (UniProt P15056); experiment: as above
BRAF_V600E = experiment: as above
BTK = BTK (UniProt Q06187); experiment: as above

Sequences of proteins named here, by UniProt entry; tags and fusion partners are left off. A change or cut given only in a name is not applied to a line headed by its entry.
UniProt P42680: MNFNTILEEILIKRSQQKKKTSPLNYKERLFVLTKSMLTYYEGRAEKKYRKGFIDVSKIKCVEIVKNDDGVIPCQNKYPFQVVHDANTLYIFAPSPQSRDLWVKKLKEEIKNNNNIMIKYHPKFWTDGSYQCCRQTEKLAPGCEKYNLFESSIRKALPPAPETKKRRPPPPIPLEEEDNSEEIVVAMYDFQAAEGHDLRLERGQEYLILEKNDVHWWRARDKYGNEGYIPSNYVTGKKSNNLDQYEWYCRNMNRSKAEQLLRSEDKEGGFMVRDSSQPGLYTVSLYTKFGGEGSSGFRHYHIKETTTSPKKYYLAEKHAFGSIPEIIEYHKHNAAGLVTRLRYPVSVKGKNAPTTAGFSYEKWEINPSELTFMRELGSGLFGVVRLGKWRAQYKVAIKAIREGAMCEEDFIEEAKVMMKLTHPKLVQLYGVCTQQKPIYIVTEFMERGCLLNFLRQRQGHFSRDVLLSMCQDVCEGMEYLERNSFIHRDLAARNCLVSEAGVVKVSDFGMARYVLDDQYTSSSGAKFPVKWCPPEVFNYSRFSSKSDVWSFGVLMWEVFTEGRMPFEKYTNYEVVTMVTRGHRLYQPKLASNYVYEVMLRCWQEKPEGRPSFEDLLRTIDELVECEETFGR
UniProt P29597: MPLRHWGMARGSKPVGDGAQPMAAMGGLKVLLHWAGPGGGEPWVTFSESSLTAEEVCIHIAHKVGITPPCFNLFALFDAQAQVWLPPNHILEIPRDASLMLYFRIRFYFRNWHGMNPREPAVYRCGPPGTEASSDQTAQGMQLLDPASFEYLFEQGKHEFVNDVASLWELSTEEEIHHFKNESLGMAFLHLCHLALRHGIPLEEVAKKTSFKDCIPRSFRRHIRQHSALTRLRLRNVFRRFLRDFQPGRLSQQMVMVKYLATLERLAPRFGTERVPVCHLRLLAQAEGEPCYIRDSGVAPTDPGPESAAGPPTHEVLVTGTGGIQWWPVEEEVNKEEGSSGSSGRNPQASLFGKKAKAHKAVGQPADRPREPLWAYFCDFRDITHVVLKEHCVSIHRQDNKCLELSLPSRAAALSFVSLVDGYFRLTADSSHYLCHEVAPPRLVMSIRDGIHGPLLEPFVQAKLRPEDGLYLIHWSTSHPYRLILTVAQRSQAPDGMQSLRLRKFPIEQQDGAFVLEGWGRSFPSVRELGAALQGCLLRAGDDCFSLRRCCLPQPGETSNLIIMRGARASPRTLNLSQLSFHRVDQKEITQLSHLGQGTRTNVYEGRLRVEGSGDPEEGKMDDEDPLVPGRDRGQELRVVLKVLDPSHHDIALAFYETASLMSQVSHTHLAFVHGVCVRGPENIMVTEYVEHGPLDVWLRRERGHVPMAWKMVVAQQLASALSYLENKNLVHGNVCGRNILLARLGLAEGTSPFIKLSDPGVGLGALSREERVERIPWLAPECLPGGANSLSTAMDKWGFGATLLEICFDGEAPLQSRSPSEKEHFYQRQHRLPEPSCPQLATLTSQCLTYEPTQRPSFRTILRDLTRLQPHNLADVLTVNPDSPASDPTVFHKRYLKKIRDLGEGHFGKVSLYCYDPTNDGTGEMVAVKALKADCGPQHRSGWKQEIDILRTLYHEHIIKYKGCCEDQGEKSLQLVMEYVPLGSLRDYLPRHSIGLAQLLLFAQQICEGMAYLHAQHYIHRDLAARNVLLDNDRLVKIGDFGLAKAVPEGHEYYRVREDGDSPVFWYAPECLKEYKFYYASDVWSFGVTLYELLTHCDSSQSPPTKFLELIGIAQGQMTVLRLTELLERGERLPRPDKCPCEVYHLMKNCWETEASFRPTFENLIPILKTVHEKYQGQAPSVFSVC
UniProt Q6PHR2: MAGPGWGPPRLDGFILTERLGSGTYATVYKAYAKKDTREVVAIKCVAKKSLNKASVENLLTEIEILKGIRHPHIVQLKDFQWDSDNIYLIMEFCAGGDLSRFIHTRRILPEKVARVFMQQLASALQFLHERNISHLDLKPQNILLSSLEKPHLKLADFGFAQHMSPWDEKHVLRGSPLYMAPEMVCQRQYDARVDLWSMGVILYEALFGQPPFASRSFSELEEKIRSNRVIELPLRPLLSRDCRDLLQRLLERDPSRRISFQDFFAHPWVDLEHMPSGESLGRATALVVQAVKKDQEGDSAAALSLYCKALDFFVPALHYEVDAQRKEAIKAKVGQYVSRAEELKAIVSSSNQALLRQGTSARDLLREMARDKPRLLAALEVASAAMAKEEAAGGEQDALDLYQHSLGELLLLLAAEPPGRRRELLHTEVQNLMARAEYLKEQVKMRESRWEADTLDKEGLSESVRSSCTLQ
UniProt P00519, whole entry: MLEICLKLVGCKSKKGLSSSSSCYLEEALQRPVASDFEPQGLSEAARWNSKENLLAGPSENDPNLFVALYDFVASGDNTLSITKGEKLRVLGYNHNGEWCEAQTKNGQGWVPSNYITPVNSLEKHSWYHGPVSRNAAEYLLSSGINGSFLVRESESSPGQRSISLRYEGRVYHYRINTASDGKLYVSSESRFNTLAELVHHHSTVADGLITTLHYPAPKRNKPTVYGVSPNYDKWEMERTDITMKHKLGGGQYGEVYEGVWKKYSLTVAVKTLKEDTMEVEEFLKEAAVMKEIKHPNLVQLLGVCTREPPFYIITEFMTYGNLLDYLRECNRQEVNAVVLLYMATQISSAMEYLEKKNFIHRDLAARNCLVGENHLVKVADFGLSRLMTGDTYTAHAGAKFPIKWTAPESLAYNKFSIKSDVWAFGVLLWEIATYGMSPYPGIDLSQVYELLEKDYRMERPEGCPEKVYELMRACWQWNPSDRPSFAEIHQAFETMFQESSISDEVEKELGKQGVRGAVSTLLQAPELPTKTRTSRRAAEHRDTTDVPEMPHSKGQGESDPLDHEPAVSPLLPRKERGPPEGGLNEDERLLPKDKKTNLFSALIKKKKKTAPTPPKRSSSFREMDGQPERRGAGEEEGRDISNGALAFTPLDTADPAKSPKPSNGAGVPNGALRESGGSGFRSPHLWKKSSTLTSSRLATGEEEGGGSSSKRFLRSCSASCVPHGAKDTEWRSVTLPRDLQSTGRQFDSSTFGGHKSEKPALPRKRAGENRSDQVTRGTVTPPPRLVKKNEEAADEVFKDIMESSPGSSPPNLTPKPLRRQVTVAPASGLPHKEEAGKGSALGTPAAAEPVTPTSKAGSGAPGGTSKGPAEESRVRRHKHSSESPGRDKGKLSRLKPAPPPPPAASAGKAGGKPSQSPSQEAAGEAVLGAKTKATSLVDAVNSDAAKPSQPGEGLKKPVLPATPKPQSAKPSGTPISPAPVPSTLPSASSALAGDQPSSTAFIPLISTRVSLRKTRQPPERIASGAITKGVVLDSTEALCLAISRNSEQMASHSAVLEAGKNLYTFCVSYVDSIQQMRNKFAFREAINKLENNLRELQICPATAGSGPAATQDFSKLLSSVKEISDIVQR
UniProt P31749: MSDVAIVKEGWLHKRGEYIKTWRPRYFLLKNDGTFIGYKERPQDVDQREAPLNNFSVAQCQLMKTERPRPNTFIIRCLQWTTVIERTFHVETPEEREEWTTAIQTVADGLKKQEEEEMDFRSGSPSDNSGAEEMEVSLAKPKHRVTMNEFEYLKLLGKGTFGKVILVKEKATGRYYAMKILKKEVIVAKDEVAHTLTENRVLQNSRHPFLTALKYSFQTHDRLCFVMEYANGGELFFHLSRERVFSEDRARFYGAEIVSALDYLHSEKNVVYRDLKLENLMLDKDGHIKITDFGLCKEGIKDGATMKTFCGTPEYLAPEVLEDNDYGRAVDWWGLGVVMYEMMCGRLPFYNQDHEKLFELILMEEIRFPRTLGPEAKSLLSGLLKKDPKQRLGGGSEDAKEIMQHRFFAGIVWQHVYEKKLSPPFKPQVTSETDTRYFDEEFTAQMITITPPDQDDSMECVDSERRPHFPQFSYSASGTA
UniProt O14965: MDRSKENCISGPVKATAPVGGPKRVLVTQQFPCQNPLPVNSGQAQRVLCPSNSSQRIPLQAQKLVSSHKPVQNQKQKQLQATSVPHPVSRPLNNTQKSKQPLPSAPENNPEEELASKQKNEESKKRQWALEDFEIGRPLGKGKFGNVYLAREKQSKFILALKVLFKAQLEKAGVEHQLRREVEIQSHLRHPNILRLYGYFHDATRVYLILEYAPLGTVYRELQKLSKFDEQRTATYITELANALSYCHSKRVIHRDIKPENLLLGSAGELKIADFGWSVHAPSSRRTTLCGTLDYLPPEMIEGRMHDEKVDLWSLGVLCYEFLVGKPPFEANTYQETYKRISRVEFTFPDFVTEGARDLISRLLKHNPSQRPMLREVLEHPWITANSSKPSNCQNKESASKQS
UniProt Q96GD4, whole entry: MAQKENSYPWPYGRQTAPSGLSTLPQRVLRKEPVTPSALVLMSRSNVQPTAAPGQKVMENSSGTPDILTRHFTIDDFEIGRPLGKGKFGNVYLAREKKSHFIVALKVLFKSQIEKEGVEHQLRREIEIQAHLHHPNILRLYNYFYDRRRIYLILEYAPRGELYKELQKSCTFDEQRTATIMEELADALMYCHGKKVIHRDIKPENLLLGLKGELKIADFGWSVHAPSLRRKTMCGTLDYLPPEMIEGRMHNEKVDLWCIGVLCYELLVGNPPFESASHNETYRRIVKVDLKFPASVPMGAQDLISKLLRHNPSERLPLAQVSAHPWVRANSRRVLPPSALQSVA
UniProt Q9UQB9: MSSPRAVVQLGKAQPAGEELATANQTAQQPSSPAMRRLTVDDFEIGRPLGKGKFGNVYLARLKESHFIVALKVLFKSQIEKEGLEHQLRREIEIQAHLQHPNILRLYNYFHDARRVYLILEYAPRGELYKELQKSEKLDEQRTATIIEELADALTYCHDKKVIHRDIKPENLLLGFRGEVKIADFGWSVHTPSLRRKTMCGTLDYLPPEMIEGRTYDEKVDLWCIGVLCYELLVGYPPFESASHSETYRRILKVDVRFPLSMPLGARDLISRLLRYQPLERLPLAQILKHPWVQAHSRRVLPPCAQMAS
UniProt P51451: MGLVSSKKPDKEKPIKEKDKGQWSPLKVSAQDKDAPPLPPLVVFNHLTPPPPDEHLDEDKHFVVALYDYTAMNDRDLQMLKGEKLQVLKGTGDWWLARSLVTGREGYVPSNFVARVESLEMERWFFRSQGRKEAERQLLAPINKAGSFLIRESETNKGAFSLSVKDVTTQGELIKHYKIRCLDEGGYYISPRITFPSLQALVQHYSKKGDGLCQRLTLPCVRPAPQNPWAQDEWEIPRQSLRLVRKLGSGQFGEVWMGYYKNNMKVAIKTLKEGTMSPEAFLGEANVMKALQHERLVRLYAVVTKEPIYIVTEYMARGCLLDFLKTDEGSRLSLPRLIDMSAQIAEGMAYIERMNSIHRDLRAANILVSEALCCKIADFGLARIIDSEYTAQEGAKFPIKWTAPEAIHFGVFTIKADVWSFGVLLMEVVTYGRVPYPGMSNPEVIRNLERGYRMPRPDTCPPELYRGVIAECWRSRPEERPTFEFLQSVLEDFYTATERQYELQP
UniProt P51813: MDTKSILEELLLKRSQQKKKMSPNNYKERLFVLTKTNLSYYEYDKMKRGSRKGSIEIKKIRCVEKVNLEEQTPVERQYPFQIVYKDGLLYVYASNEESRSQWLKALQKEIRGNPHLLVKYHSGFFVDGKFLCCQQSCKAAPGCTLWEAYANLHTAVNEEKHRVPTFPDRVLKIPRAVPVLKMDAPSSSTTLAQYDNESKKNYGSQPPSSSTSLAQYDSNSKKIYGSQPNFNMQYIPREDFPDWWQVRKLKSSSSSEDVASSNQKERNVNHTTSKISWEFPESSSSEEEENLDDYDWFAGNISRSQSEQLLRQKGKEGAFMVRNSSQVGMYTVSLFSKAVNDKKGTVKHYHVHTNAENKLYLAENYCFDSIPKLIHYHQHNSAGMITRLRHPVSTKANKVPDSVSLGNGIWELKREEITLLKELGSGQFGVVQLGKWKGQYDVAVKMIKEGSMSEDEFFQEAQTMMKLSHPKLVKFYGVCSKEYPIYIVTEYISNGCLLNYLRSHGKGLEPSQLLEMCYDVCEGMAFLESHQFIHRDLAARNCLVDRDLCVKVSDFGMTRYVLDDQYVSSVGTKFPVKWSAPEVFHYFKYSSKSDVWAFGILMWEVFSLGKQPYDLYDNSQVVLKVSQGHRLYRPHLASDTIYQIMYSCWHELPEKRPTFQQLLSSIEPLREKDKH

SMILES	kinase-Nluc reporter destabilization hit call (STK38)	kinase-Nluc reporter destabilization hit call (SYK)	kinase-Nluc reporter destabilization hit call (TEC)	kinase-Nluc reporter destabilization hit call (TYK2)	kinase-Nluc reporter destabilization hit call (ULK3)	kinase-Nluc reporter destabilization hit call (YES1)	kinase-Nluc reporter destabilization hit call (ZAK)	kinase-Nluc reporter destabilization hit call (ZAP70)	number of time points (ABL1)	number of time points (AKT1)	number of time points (ALK)	number of time points (ARAF)	number of time points (AURKA)	number of time points (AURKB)	number of time points (AURKC)	number of time points (BLK)	number of time points (BMX)	number of time points (BRAF)	number of time points (BRAF_V600E)	number of time points (BTK)
O=S(=O)(c1cccc2c(Cl)cccc12)N1CCCNCC1 (10 µM)	inactive: 0	inactive: 0	inactive: 0	inactive: 0	inactive: 0	inactive: 0	inactive: 0	inactive: 0	0	0	0	0	0	0	0	0	0	0	0	0
O=C(Nc1cc(Cl)cc(Cl)c1)Nc1cc(Cl)cc(Cl)c1 (10 µM)	inactive: 0	inactive: 0	inactive: 0	inactive: 0	inactive: 0	inactive: 0	inactive: 0	inactive: 0	0	0	0	0	0	0	0	0	0	0	0	0
CN(C)CCCn1cc(C2=C(c3c[nH]c4ccccc34)C(=O)NC2=O)c2ccccc21 [Bisindolylmaleimide I] (2.5 µM)	inactive: 0	inactive: 0	inactive: 0	inactive: 0	inactive: 0	inactive: 0	inactive: 0	inactive: 0	0	0	0	0	0	0	0	0	0	0	0	0
CC(C)(C)c1ccc(C(=O)Nc2cn3cc(-n4ccnc4)ccc3n2)cc1 (10 µM)	inactive: 0	inactive: 0	inactive: 0	inactive: 0	inactive: 0	inactive: 0	inactive: 0	inactive: 0	0	0	0	0	0	0	0	0	0	0	0	0
Cc1cccc(Cn2nc(C)c3c(NC(=O)c4csc5c(N)ncnc45)cccc32)n1 (10 µM)	inactive: 0	inactive: 0	inactive: 0	inactive: 0	inactive: 0	inactive: 0	inactive: 0	inactive: 0	0	0	0	0	0	0	0	0	0	0	0	0
O=C(Nc1nccs1)C(c1cc(F)ccc1O)N1Cc2ccc(-c3ccc(N4CCNCC4)cc3)cc2C1=O (racemic) (10 µM)	inactive: 0	inactive: 0	inactive: 0	inactive: 0	inactive: 0	inactive: 0	inactive: 0	inactive: 0	4	0	2	0	0	0	0	1	0	0	0	0
COc1cc(OC)c(/C=C/S(=O)(=O)Cc2ccc(OC)c(NCC(=O)O)c2)c(OC)c1 [Rigosertib (sodium)] (10 µM)	inactive: 0	inactive: 0	inactive: 0	inactive: 0	inactive: 0	inactive: 0	inactive: 0	inactive: 0	2	0	1	0	0	0	0	1	1	0	1	0
CC(C)=C/C=C1\O[C@@H]2CC(C)=CC(=O)[C@@H]2[C@]1(C)O [Bisabolangelone] (10 µM)	inactive: 0	inactive: 0	inactive: 0	inactive: 0	inactive: 0	inactive: 0	inactive: 0	inactive: 0	0	0	0	0	0	0	0	0	0	0	0	0
Cc1cc(=O)[nH]c(=S)[nH]1 [Methylthiouracil] (10 µM)	inactive: 0	inactive: 0	inactive: 0	inactive: 0	inactive: 0	inactive: 0	inactive: 0	inactive: 0	0	0	0	0	0	0	0	0	0	0	0	0
CNCCOc1ccccc1C(C)(C)Nc1nccn(-c2cc(C(=O)NC3CC3)ccc2C)c1=O [p38α inhibitor 2] (10 µM)	inactive: 0	inactive: 0	inactive: 0	inactive: 0	inactive: 0	inactive: 0	inactive: 0	inactive: 0	0	0	0	0	0	0	0	0	0	0	0	0

Part of the list above, limited to kinase-Nluc reporter destabilization hit call (TEC), number of time points (AURKC) and number of time points (BLK):
SMILES,kinase-Nluc reporter destabilization hit call (TEC),number of time points (AURKC),number of time points (BLK)
CC(C)=C/C=C1\O[C@@H]2CC(C)=CC(=O)[C@@H]2[C@]1(C)O [Bisabolangelone] (10 µM),inactive: 0,0,0
Cc1cc(=O)[nH]c(=S)[nH]1 [Methylthiouracil] (10 µM),inactive: 0,0,0

From the supplement of paper PMC12823440, “Inhibitors supercharge kinase turnover through native proteolytic circuits” (Nature, 2025)
